Each structure is given as a SMILES string.

By UniProt entry, the sequences of proteins in these tests, tags left out.
UniProt Q9Y463, whole entry: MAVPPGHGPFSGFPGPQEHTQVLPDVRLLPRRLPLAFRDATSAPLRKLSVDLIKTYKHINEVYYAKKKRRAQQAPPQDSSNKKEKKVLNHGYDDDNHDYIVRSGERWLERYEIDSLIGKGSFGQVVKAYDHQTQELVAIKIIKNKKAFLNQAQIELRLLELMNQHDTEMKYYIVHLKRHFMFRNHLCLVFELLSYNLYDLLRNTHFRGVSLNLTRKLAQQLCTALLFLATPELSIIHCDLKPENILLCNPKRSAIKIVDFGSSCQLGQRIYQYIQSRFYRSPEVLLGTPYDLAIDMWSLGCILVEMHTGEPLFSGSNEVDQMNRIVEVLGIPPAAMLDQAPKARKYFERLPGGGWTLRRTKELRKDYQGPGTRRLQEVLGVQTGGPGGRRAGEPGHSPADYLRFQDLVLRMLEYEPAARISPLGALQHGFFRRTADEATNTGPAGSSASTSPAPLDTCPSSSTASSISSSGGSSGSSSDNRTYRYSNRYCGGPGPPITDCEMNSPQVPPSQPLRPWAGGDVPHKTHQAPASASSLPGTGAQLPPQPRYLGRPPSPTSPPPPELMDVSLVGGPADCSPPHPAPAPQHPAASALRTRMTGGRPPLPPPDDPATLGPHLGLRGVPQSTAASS

This passage reports IC50 results from US9446044B2, “DYRK1 inhibitors and uses thereof” (DIAXONHIT, priority 2011, dated 2016).

This test has as its target DYRK1B (Homo sapiens (Human), UniProt Q9Y463). Briefly: DYRK1B kinase assay (HotSpot, Reaction Biology). The format is biochemical.

In general, IC50 refers to the concentration that inhibits the measured activity by half. Low values mean higher potency, high ones lower potency. In the case of `COc1ccc2c(c1)[nH]c1c(C)nccc12` [Harmine, reference compound], the IC50 amounted to 27.9 nM.
